This passage reports step yield results from US20150218212A1 (FLUORINOV PHARMA INC., priority 2012, published 2015).

The data set is described as follows: general procedure: solution-phase peptide synthesis; HBTU, 1-hydroxybenzotriazole hydrate, DIPEA. Particulars: coupling step.

“(2S)—N-[(1S)-1-(difluoromethoxymethyl)-2-[[(1S)-3-methyl-1-[(2R)-2-methyloxirane-2-carbonyl]butyl]amino]-2-oxo-ethyl]-2-[[(2S)-3-(difluoromethoxy)-2-[(2-morpholinoacetyl)amino]propanoyl]amino]-4-methyl-pentanamide” registered a step yield of 31%.
